The list is a part of this screen's results and no random one: its compounds were picked by chemical class. Other doses and runs of a compound may be missing. T/C is the treated group as % of the vehicle group. Some entries show no survivor count and are marked so; the dose need not have been tolerated. Schedule codes are those of the source, read here as Q, the interval in days (D) or hours (H), X, the number of doses. Some doses were run more than once; the results are listed from low to high.

The subject of this test is BDF1 mice, Adenocarcinoma 755 s.c., tumor weight T/C. The test is described as follows: NCI In Vivo Anticancer Drug Screen. Data for tumor model Adenocarcinoma 755 (subcutaneous) in B6D2F1 (BDF1) mice. Particulars: T/C endpoint: mean tumor weight, schedule: Q01DX011 (ip), evaluation day not shown, higher T/C = larger tumour. The protocol:
The antitumor activity of compounds was measured in mice bearing transplantable tumors. Survival or tumor size were measured and the results are expressed as the measurement made in the treated group (T) divided by the measurement made in the vehicle treated control group (C). The tumor model used in this assay is Adenocarcinoma 755 (subcutaneous) in B6D2F1 (BDF1) mice

[1] abbreviates: dose: 1.25 mg/kg/injection, vehicle: saline.
The mark [2] stands for this setting: dose: 2.5 mg/kg/injection, vehicle: saline.

As for `O=P(Cl)(Cl)N(CCF)CCF`, the T/C by setting is: (dose: 0.15 mg/kg/injection, vehicle: saline) 64 % of control [survivor count not shown]; (dose: 0.31 mg/kg/injection, vehicle: saline) 120 % of control [survivor count not shown]; (dose: 0.63 mg/kg/injection, vehicle: saline) 86 % of control [survivor count not shown]; under setting [1], 34 [survivor count not shown] and 83 % of control [survivor count not shown]; under setting [2], 55 % of control [survivor count not shown].

`CCCCOc1cccc(N(CCCl)CCCl)c1`: the T/C was 54 [survivor count not shown] and 79 % of control [survivor count not shown] (dose: 75.0 mg/kg/injection, vehicle: methylcellulose (MC)); 45 [survivor count not shown] and 90 % of control [survivor count not shown] (dose: 150.0 mg/kg/injection, vehicle: methylcellulose (MC)); 17 [survivor count not shown] and 68 % of control [survivor count not shown] (dose: 300.0 mg/kg/injection, vehicle: methylcellulose (MC)); 85 % of control [survivor count not shown] (dose: 600.0 mg/kg/injection, vehicle: methylcellulose (MC)).

With `O=C(O)C(=O)Cc1ccc(N(CCCl)CCCl)cc1`, the T/C (dose: 1.5 mg/kg/injection, vehicle: carboxymethylcellulose (CMC)) is 121 % of control [survivor count not shown]; the T/C (dose: 3.0 mg/kg/injection, vehicle: carboxymethylcellulose (CMC)) was 105 % of control [survivor count not shown]; the T/C (dose: 6.0 mg/kg/injection, vehicle: carboxymethylcellulose (CMC)) was 70 % of control [survivor count not shown]; the T/C (dose: 12.0 mg/kg/injection, vehicle: carboxymethylcellulose (CMC)) was 20 % of control [survivor count not shown].

On to `O[C@@H](CNCCCl)[C@@H](O)CNCCCl`, for which the T/C is, setting by setting: under setting [1], 57 % of control [survivor count not shown]; under setting [2], 29 % of control [survivor count not shown]; (dose: 5.0 mg/kg/injection, vehicle: saline) 7 % of control [survivor count not shown]; (dose: 10.0 mg/kg/injection, vehicle: saline) 2 % of control [survivor count not shown].

As for `Cn1c(=O)[nH]cc(N(CCCl)CCCl)c1=O`, the T/C by setting is: (dose: 0.44 mg/kg/injection, vehicle: methylcellulose (MC)) 51 [survivor count not shown] and 64 % of control [survivor count not shown]; (dose: 0.88 mg/kg/injection, vehicle: methylcellulose (MC)) 32 [survivor count not shown] and 68 % of control [survivor count not shown]; (dose: 1.75 mg/kg/injection, vehicle: methylcellulose (MC)) 14 [survivor count not shown] and 20 % of control [survivor count not shown].

Regarding `CC(Cl)CN(CCCl)P1(=O)NCCCO1` (stereo not given), the T/C is 75 % of control [survivor count not shown] (dose: 11.0 mg/kg/injection, vehicle: methylcellulose (MC)); 54 % of control [survivor count not shown] (dose: 22.0 mg/kg/injection, vehicle: methylcellulose (MC)); 75 % of control [survivor count not shown] (dose: 44.0 mg/kg/injection, vehicle: methylcellulose (MC)); 19 % of control [survivor count not shown] (dose: 88.0 mg/kg/injection, vehicle: methylcellulose (MC)); 64 % of control [survivor count not shown] (dose: 100.0 mg/kg/injection, vehicle: methylcellulose (MC)).

The values above are taken from PubChem BioAssay AID180 (DTP/NCI, 2004).
